This experiment concerns HEK293A TEAD-LUC reporter. Description: TEAD-luciferase reporter activity (YAP activation), robust Z score vs plate; higher = stronger YAP/TEAD activation. Particulars: 24 h.

The other results are listed elsewhere or left out. Repeats in this data set agree poorly, so a single value says little.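 In a drug-repurposing library screen, luminescence reads luciferase driven by eight TEAD-binding elements, stably integrated into human kidney-derived cells. Compounds scoring over five robust Z scores above the plate mean are called hits.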

Consider `CCOC(=O)Cc1c2n(c3c(F)cccc13)CC(OS(C)(=O)=O)CC2` (configuration not stated), for which the TEAD-luciferase reporter activity is inactive: -0.579 (compound concentration: 200 nM), inactive: -0.0895 (compound concentration: 2 uM) and inactive: 3.25 (compound concentration: 10 uM).

On to `CSc1cc(C)nc(SC)c1NC(=O)CN1CCN(CCSc2nc3ccccc3[nH]2)CC1`, for which the TEAD-luciferase reporter activity is inactive: -0.911 (compound concentration: 200 nM), inactive: -1.37 (compound concentration: 2 uM) and inactive: -1.66 (compound concentration: 10 uM).

Regarding `CCOC(=O)C(=O)Nc1nc(-c2ccc(OC)cc2)cs1` [Tioxamast], the TEAD-luciferase reporter activity is, setting by setting: (compound concentration: 200 nM) inactive: 0.382; (compound concentration: 2 uM) inactive: -0.568; (compound concentration: 10 uM) inactive: -0.265.

Take `Nc1ccccc1NC(=O)c1ccc(CNc2nccc(-c3cccnc3)n2)cc1` [mocetinostat]: for the setting “compound concentration: 2 uM”, the TEAD-luciferase reporter activity is active: 47.6.

Regarding `Nc1ccccc1NC(=O)c1ccc(CNc2nccc(-c3cccnc3)n2)cc1` [Mocetinostat (MGCD0103)], the TEAD-luciferase reporter activity is inactive: 3 (compound concentration: 200 nM) and active: 49.7 (compound concentration: 10 uM).

With `Cc1nc2ccccn2c(=O)c1CCN1CCc2oc3ccccc3c2C1`, the TEAD-luciferase reporter activity reads like this: (compound concentration: 200 nM) inactive: -0.0979; (compound concentration: 2 uM) inactive: 0.134; (compound concentration: 10 uM) inactive: -0.435.

With `COc1ccc([C@@H]2CC(=O)c3c(O)cc(O[C@@H]4O[C@H](CO[C@@H]5O[C@@H](C)[C@H](O)[C@@H](O)[C@H]5O)[C@@H](O)[C@H](O)[C@H]4O)cc3O2)cc1O`, the TEAD-luciferase reporter activity is inactive: -0.91 (compound concentration: 200 nM) and inactive: -0.364 (compound concentration: 10 uM).

In the case of `COc1ccc([C@@H]2CC(=O)c3c(O)cc(O[C@@H]4O[C@H](CO[C@@H]5O[C@@H](C)[C@H](O)[C@@H](O)[C@H]5O)[C@@H](O)[C@H](O)[C@H]4O)cc3O2)cc1O` [Hesperidin], where the note is “compound concentration: 2 uM”, the TEAD-luciferase reporter activity is inactive: -1.63.

On to `O=C(O)Cc1nn(-c2ccc(F)cc2)cc1-c1ccc(Cl)cc1` [pirazolac], for which the TEAD-luciferase reporter activity (compound concentration: 200 nM) is inactive: -0.374, the TEAD-luciferase reporter activity (compound concentration: 2 uM) was inactive: -0.332 and the TEAD-luciferase reporter activity (compound concentration: 10 uM) is inactive: 1.01.

Take `C[C@@H](Oc1ccc(CNC(=O)c2cccnc2Oc2ccc3c(c2)OCO3)c(F)c1)C(=O)O`: the TEAD-luciferase reporter activity (compound concentration: 200 nM) was inactive: 0.739, the TEAD-luciferase reporter activity (compound concentration: 2 uM) is inactive: -0.411 and the TEAD-luciferase reporter activity (compound concentration: 10 uM) was inactive: -1.55.

As to `CC(=O)c1cc(N)ccc1N1CCC(C)CC1`, the TEAD-luciferase reporter activity reads like this: (compound concentration: 200 nM) inactive: -0.852; (compound concentration: 2 uM) inactive: -0.265; (compound concentration: 10 uM) inactive: -0.0565.

As for `CC(=O)NC[C@H]1CN(c2ccc(-c3ccc(CNCCCF)cc3)c(F)c2)C(=O)O1`, the TEAD-luciferase reporter activity was inactive: -0.69 (compound concentration: 200 nM), inactive: 1.13 (compound concentration: 2 uM) and inactive: -0.724 (compound concentration: 10 uM).

On to `CCOC(=O)Nc1ccc2c(c1)N(C(=O)CCN(CC)CC)c1ccccc1S2` [etacizin], for which the TEAD-luciferase reporter activity reads like this: (compound concentration: 200 nM) inactive: -0.932; (compound concentration: 2 uM) inactive: 2.47; (compound concentration: 10 uM) inactive: 0.782.

In the case of `CC[C@H](C)[C@@H]1NC(=O)[C@H](CCC(N)=O)NC(=O)[C@H](CC(N)=O)NC(=O)[C@H](CO)NC(=O)[C@H](CC(N)=O)NC(=O)[C@@H](N)CSSC[C@@H](C(=O)O)NC1=O`, the TEAD-luciferase reporter activity (compound concentration: 200 nM) was inactive: 0.015, the TEAD-luciferase reporter activity (compound concentration: 2 uM) is inactive: 0.248 and the TEAD-luciferase reporter activity (compound concentration: 10 uM) is inactive: 3.37.

For the compound `Cc1cc(-c2nc3cc(F)ccc3s2)ccc1NC(=O)[C@@H](N)CCCCN` [Phortress], the TEAD-luciferase reporter activity (compound concentration: 200 nM) is inactive: 1.53, the TEAD-luciferase reporter activity (compound concentration: 2 uM) was inactive: -2.68 and the TEAD-luciferase reporter activity (compound concentration: 10 uM) is inactive: 0.281.

As to `Cc1cc(-c2nc3cc(F)ccc3s2)ccc1NC(=O)[C@@H](N)CCCCN`, the TEAD-luciferase reporter activity (compound concentration: 2 uM) was inactive: -1.22.

On to `CCn1c(=O)c2c(nc(N[C@@H]3CCC[C@H]3O)n2Cc2ccc(OC)c(Br)c2)n(CCO)c1=O` [dasantafil], for which the TEAD-luciferase reporter activity (compound concentration: 200 nM) was inactive: -0.0763, the TEAD-luciferase reporter activity (compound concentration: 2 uM) is inactive: -0.111 and the TEAD-luciferase reporter activity (compound concentration: 10 uM) was inactive: -0.844.

As for `CCc1ncnc2cc(OC)c(OC)cc12`, the TEAD-luciferase reporter activity is, setting by setting: (compound concentration: 200 nM) inactive: -0.717; (compound concentration: 2 uM) inactive: -1.42; (compound concentration: 10 uM) inactive: 0.108.

As to `c1ccc(OCCNC2CCN(c3nc4ccccc4s3)CC2)cc1`, the TEAD-luciferase reporter activity is inactive: -2.92 (compound concentration: 200 nM), inactive: -0.232 (compound concentration: 2 uM) and inactive: 0.288 (compound concentration: 10 uM).

For `COc1cccc(OCC2CNCCO2)c1` (configuration not stated), the TEAD-luciferase reporter activity was inactive: 2.98 (compound concentration: 200 nM), inactive: 3.1 (compound concentration: 2 uM) and inactive: 0.528 (compound concentration: 10 uM).

Take `COc1cccc([C@@H](Oc2ccc3c(cnn3-c3ccc(F)cc3)c2)[C@H](C)NC(=O)C(F)(F)F)c1`: the TEAD-luciferase reporter activity was inactive: -0.512 (compound concentration: 200 nM), inactive: -0.413 (compound concentration: 2 uM) and inactive: 0.372 (compound concentration: 10 uM).

With `O=Cc1c(O)ccc2cccc(O)c12`, the TEAD-luciferase reporter activity reads like this: (compound concentration: 200 nM) inactive: 0.0269; (compound concentration: 2 uM) inactive: -1.75; (compound concentration: 10 uM) inactive: -1.53.

Regarding `CCC(=O)c1ccc2c(c1)N(CC(C)N(C)C)c1ccccc1S2` (configuration not stated) [Propiomazine], the TEAD-luciferase reporter activity is, setting by setting: (compound concentration: 200 nM) inactive: 0.0994; (compound concentration: 2 uM) inactive: -1.43; (compound concentration: 10 uM) inactive: 4.05.

In the case of `CCOCCn1c(N2CCCN(C)CC2)nc2ccccc21` [emedastine difumarate], the TEAD-luciferase reporter activity was inactive: -1.49 (compound concentration: 200 nM), inactive: -0.716 (compound concentration: 2 uM) and inactive: -0.0958 (compound concentration: 10 uM).

Turning to `O=C(O)C(Cl)c1ccc(C2CCCCC2)c(Cl)c1` (configuration not stated) [fenclorac], the TEAD-luciferase reporter activity runs as follows: (compound concentration: 200 nM) inactive: -0.782; (compound concentration: 2 uM) inactive: -1.1; (compound concentration: 10 uM) inactive: 0.62.

For `C[C@@H]1C[C@H]2[C@@H]3CCC4=CC(=O)C=C[C@]4(C)[C@@]3(Cl)[C@@H](O)C[C@]2(C)[C@@]1(OC(=O)c1ccco1)C(=O)CCl` (single isomer, unassigned; ent-2) [mometasone furoate stent, Intersect ENT-2], the TEAD-luciferase reporter activity reads like this: (compound concentration: 200 nM) inactive: -1.03; (compound concentration: 10 uM) inactive: 3.67.

As to `CCCN1CC(c2ccc(S(C)(=O)=O)cc2)=C(c2ccc(C)cc2)C1=O` [Imrecoxib], the TEAD-luciferase reporter activity (compound concentration: 200 nM) was inactive: -1.7, the TEAD-luciferase reporter activity (compound concentration: 2 uM) was inactive: -0.404 and the TEAD-luciferase reporter activity (compound concentration: 10 uM) was inactive: -1.28.
